Source: US9132131B2, “Use of adenosine A3 receptor agonists for treatment of neuropathic pain” (Saint Louis University, priority 2011, dated 2015)
Some of these results come from one statement about several compounds together. For at least one compound, name, drawing or mass did not settle the structure.

System: CCI of the sciatic nerve (mechano-allodynia)
Assay: CCI model of neuropathic pain, mechano-allodynia (von Frey PWT)
Type: in vivo, mice
Experimental: CCI model of neuropathic pain. CCI to the sciatic nerve of the left hind leg in mice was performed under general anaesthesia using the well-characterized Bennett model. Briefly, mice (weighing 25-30 g at the time of surgery) were anesthetized with 3% isoflurane/100% O2 inhalation and maintained on 2% isoflurane/100% O2 for the duration of surgery. The left thigh was shaved, scrubbed with Nolvasan® and a small incision (1-1.5 cm in length) was made in the middle of the lateral aspect of the left thigh to expose the sciatic nerve. The nerve was loosely ligated around the entire diameter of the nerve at three distinct sites (spaced 1 mm apart) using silk sutures (6.0). The surgical site was closed with a single muscle suture and a skin clip. Pilot studies established that under our experimental conditions peak mechano-allodynia develops by day 5-day 7 (D5-D7) following CCI. […]
Behavioral testing. […] Mechanical threshold was assessed three times at each time point to yield a mean value, reported as PWT (grams). […] Mechano-hyperalgesia was assessed in rats by the Randall and Sellitto paw pressure test using an analgesiometer (Ugo Basile). […]
Statistical Analysis. Data are expressed as mean±SD for n animals. Behavioral data were analyzed by two-way repeated measures ANOVA with Bonferroni comparisons (full time course studies) or one-way ANOVA Dunnett's comparisons (1 hour behavioral data). […]

Row | Compound | onset of reversal of mechano-allodynia (gabapentin i.p., amitriptyline oral on D7) [h] | time of maximal reversal of mechano-allodynia (after single administration on D7) [h]
1 | NCC1(CC(=O)O)CCCCC1 [gabapentin, 2-[1-(aminomethyl)cyclohexyl]acetic acid] | ≤ 0.5 | 
2 | CNC(=O)[C@H]1O[C@@H](n2cnc3c(NCc4cccc(I)c4)nc(Cl)nc32)[C@H](O)[C@@H]1O [CI-IB-MECA, 2-chloro-N^6-(3-iodobenzyl)-adenosine-5′-N-methyluronamide] |  | ≤ 1
